Shown are results outside the selection of hits, which stands elsewhere. Records with an inconclusive call do not appear. Activity calls are given as the source filed them. Calls come from the whole dose curve; as a rule, active = well fitted curve in the direction sought with a large enough effect; inconclusive = small, poorly fitted or top-dose-only effect, or another doubt; inactive = no such curve, though single readings can be large; an effect the other way counts as inactive or inconclusive.
Columns and labels:
[1] = Cell Viability - LYMP1-003 - Assay at 24 hr (AID 963); conditions: LYMP1-003 lymphoblastoid cell viability; at 92.2 µM (top of the series);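 note: plate controls were DMSO only for no effect and tetraoctylammonium bromide positive control for full effect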
In short: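 Human lymphoblastoid LYMP1-003 cells, 2500/well, treated 24 h at 37 C in complete medium. Viability read as intracellular ATP by CellTiter-Glo luminescence after 30 min at room temperature; AC50 from Hill-equation fits of qHTS concentration-response.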

[2] = Cell Viability - LYMP1-003 - Assay at 40 hr (AID 964); conditions: LYMP1-003 lymphoblastoid viability; at 92.2 µM (top of the series); note: % is set by controls: 0 for no effect and ±100 for the full control effect; nearly all actives have a fitted effect of over 60% in size
In short: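 LYMP1-003 human lymphoblastoid cells, 2500/well, preincubated 5 h at 37 C, then treated with compound for 40 h at 37 C. Intracellular ATP read by CellTiter-Glo luminescence after 30 min at room temperature; AC50 from Hill-equation fits.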

[3] = Cell Viability - LYMP2-003 (AID 965); conditions: LYMP2-003 lymphoblastoid cell viability; at 92.2 µM (top of the series);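 note: cells exposed to compounds for 24 h before reading; 0% = DMSO only and full effect = 92 µM tetraoctylammonium bromide; nearly all actives have a fitted effect of over 50% in size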
In short: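 qHTS, human lymphoblastoid line, 2500 cells/well, complete medium. 24 h drug, 37 C. ATP-based luminescent readout; Hill-fit AC50.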

[4] = Cell Viability - LYMP2-004 (AID 966); conditions: LYMP2-004 lymphoblastoid cell viability, qHTS; at 92.2 µM (top of the series);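 note: plate controls were DMSO only for no effect and tetraoctylammonium bromide control for full effect; nearly all actives have a fitted effect of over 65% in size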
In short: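 Lymphoblastoid LYMP2-004 cells, 2500 per well, were preincubated for 5 hr and then treated with compound for 24 h at 37 C in complete medium. Viability was read as cellular ATP by CellTiter-Glo luminescence, and AC50 values were taken from Hill fits to concentration-response data.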

[5] = Cell Viability - LYMP2-011 (AID 969); conditions: LYMP2-011 lymphoblastoid cells viability; at 92.2 µM (top of the series);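 note: 0% = DMSO only and full inhibition = 92 µM tetraoctylammonium bromide; nearly all actives have a fitted effect of over 60% in size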
In short: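 2500 cells/well in complete medium, compound-treated 24 h at 37 C. Viability read as intracellular ATP by CellTiter-Glo luminescence after 30 min at room temperature. AC50 from Hill fits of qHTS concentration-response data.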

[6] = Cell Viability - LYMP2-013 (AID 970); conditions: LYMP2-013 lymphoblastoid cells viability; at 92.2 µM (top of the series);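 note: 0% = DMSO only and full inhibition = tetraoctylammonium bromide control; nearly all actives have a fitted effect of over 55% in size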
In short: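 Human lymphoblastoid LYMP2-013 cells, 2500/well, treated 24 h at 37 C in complete medium; viability as intracellular ATP by CellTiter-Glo luminescence after 30 min. AC50 from Hill fits of qHTS concentration-response.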

[7] = Cell Viability - LYMP2-017 (AID 972); conditions: LYMP2-017 lymphoblastoid cell viability; at 92.2 µM (top of the series); note: % is set by controls: 0 for no effect and ±100 for the full control effect; nearly all actives have a fitted effect of over 55% in size
In short: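 LYMP2-017 human lymphoblastoid cells (2500/well) settled 5 hr at 37 C, then exposed to compound 24 hr at 37 C in complete medium. Viability taken as intracellular ATP by CellTiter-Glo luminescence after 30 min at RT; AC50 from Hill fits.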

[8] = Cell Viability - LYMP2-019 (AID 973); conditions: LYMP2-019 lymphoblastoid cell line viability; at 92.2 µM (top of the series);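 note: 0% = DMSO alone and full effect = 92 µM tetraoctylammonium bromide; nearly all actives have a fitted effect of over 55% in size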
[9] = Cell Viability - LYMP2-021 (AID 974); conditions: LYMP2-021 lymphoblastoid cells viability; at 92.2 µM (top of the series);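 note: compound exposure lasts 24 hours at 37 °C; % is set by controls: 0 for no effect and ±100 for the full control effect; nearly all actives have a fitted effect of over 55% in size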
In short: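 Human lymphoblastoid LYMP2-021 cells, 2500/well in complete medium, treated 24 hours at 37 C. Intracellular ATP by CellTiter-Glo luminescence (30 min, RT); AC50 from Hill fits of concentration-response.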

[10] = Cell Viability - LYMP2-023 (AID 975); conditions: LYMP2-023 lymphoblastoid cell viability; at 92.2 µM (top of the series)
In short: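 LYMP2-023 human lymphoblastoid cells, 2500/well, preincubated 5 hr at 37 C, then compound-treated 24 hr at 37 C in complete medium. CellTiter-Glo luminescence (ATP) after 30 min at room temperature; AC50 from Hill-equation fits; tetraoctylammonium bromide positive control.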

[11] = Cell Viability - LYMP2-025 (AID 976); conditions: LYMP2-025 lymphoblastoid cell viability; at 92.2 µM (top of the series);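 note: plate controls were DMSO only for no effect and tetraoctylammonium bromide control for full effect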
In short: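 Human lymphoblastoid LYMP2-025 cells, 2500/well, exposed 24 h at 37 C in complete medium in 1536-well qHTS. Viability as cellular ATP by CellTiter-Glo luminescence; AC50 from Hill fits of concentration-response data.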

[12] = Cell Viability - LYMP2-002 (AID 977); conditions: LYMP2-002 lymphoblastoid cell viability, qHTS; at 92.2 µM (top of the series);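 note: plate controls were DMSO only for no effect and 92 µM tetraoctylammonium bromide for full effect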
In short: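 Luminescent ATP readout (CellTiter-Glo, 30 min room temperature) after 24 h compound exposure at 37 C of a human lymphoblastoid line, 2500 cells/well. AC50 values derived by standard Hill fitting of qHTS concentration-response data.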

[13] = Cell Viability - LYMP2-006 (AID 978); conditions: LYMP2-006 lymphoblastoid cell viability, qHTS; at 92.2 µM (top of the series); note: % is set by controls: 0 for no effect and ±100 for the full control effect; nearly all actives have a fitted effect of over 60% in size
In short: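 In this cytotoxicity screen, the human lymphoblastoid line grew in complete medium with test compounds for 24 hr at 37 C. Cellular ATP served as the viability signal.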

[14] = Cell Viability - LYMP2-007 (AID 979); conditions: LYMP2-007 lymphoblastoid cell viability; at 92.2 µM (top of the series);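 note: cells exposed to compound for 24 h before reading; 0% = DMSO only and the negative end = 92 µM tetraoctylammonium bromide; nearly all actives have a fitted effect of over 60% in size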
[15] = Cell Viability - LYMP2-008 (AID 980); conditions: LYMP2-008 lymphoblastoid cell viability, qHTS; at 92.2 µM (top of the series)
In short: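 LYMP2-008 lymphoblastoid cells (2500/well) plated 5 h, then treated 24 h at 37 C in complete medium. Viability read as intracellular ATP by CellTiter-Glo luminescence after 30 min at room temperature; AC50 from Hill fits.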

[16] = Cell Viability - LYMP2-010 (AID 981); conditions: LYMP2-010 lymphoblastoid cell viability, qHTS; at 92.2 µM (top of the series)
In short: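 Human lymphoblastoid LYMP2-010 cells (2500/well) treated 24 h at 37 C in complete medium; viability read as intracellular ATP by CellTiter-Glo luminescence. AC50 from Hill fits of concentration-response data; tetraoctylammonium bromide positive control.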

[17] = Cell Viability - LYMP2-012 (AID 982); conditions: LYMP2-012 lymphoblastoid cell viability qHTS; at 92.2 µM (top of the series)
[18] = Cell Viability - LYMP2-014 (AID 983); conditions: LYMP2-014 lymphoblastoid cells, viability qHTS; at 92.2 µM (top of the series);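 note: plate controls were DMSO only for no effect and 92 µM tetraoctylammonium bromide for full effect; nearly all actives have a fitted effect of over 50% in size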
[19] = Cell Viability - LYMP2-016 (AID 984); conditions: LYMP2-016 lymphoblastoid cell viability, qHTS; at 92.2 µM (top of the series)
In short: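 Concentration-dependent ATP depletion measured in LYMP2-016 lymphoblastoid cells, 24 h, 37 C; luciferase-based luminescent detection; Hill-equation AC50.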

[20] = Cell Viability - LYMP2-018 (AID 985); conditions: LYMP2-018 lymphoblastoid cells, viability (qHTS); at 92.2 µM (top of the series);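 note: compound exposure lasted 24 hr at 37 °C; plate controls were DMSO only for no effect and tetraoctylammonium bromide at 92 µM for full effect; nearly all actives have a fitted effect of over 50% in size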
In short: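 Human lymphoblastoid LYMP2-018 cells, 2500/well, settled 5 hr at 37 C then exposed to compound 24 hr at 37 C; intracellular ATP measured by CellTiter-Glo luminescence. AC50 from Hill-equation concentration-response fits.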

Cc1ccc(O)cc1C
inactive: viability change, negative = cytotoxic [1] -0.779% | activity change, negative = cytotoxic [2] -4.59% | activity change, negative = cytotoxicity [3] 6.98% | activity change, negative = cytotoxicity [4] 5.64% | viability change, negative = cytotoxic [5] -4.83% | activity change, negative = cytotoxic [6] -2.15% | activity change, negative = cytotoxicity [7] -9.07% | activity change, negative = cytotoxicity [8] -6.67% | activity change, negative = cytotoxicity [9] 0.195% | activity change, negative = cytotoxicity [10] -2.37% | activity change, negative = cytotoxicity [11] -5.08% | activity change, negative = cytotoxic [12] -3.65% | activity change, negative = cytotoxicity [13] 3.98% | activity change, negative = cytotoxicity [14] -13.3% | activity change, negative = cytotoxicity [15] -6.44% | activity, negative = cytotoxicity [16] -12% | activity change, negative = cytotoxicity [17] -5.02% | activity change, negative = cytotoxicity [18] -9.72% | activity change, negative = cytotoxicity [19] 0.0684% | activity change, negative = cytotoxicity [20] -5.46%

Oc1c(Cl)cc(Cl)cc1Cl
inactive: viability change, negative = cytotoxic [1] 0.147% | activity change, negative = cytotoxic [2] -3.68% | activity change, negative = cytotoxicity [3] -1.88% | activity change, negative = cytotoxicity [4] -14.2% | viability change, negative = cytotoxic [5] -8.48% | activity change, negative = cytotoxic [6] -10.4% | activity change, negative = cytotoxicity [7] 0.829% | activity change, negative = cytotoxicity [8] -3.3% | activity change, negative = cytotoxicity [9] -3.67% | activity change, negative = cytotoxicity [10] -1.59% | activity change, negative = cytotoxicity [11] -16.6% | activity change, negative = cytotoxic [12] -17.2% | activity change, negative = cytotoxicity [13] -1.44% | activity change, negative = cytotoxicity [14] -11.9% | activity change, negative = cytotoxicity [15] -1.08% | activity, negative = cytotoxicity [16] -1.2% | activity change, negative = cytotoxicity [17] -0.908% | activity change, negative = cytotoxicity [18] 0.0567% | activity change, negative = cytotoxicity [19] -6.31% | activity change, negative = cytotoxicity [20] -1.26%

O=[N+]([O-])c1ccccc1Cl
inactive: viability change, negative = cytotoxic [1] 8.25% | activity change, negative = cytotoxic [2] 2.12% | activity change, negative = cytotoxicity [3] -0.599% | activity change, negative = cytotoxicity [4] -9.84% | viability change, negative = cytotoxic [5] -0.37% | activity change, negative = cytotoxic [6] -2.24% | activity change, negative = cytotoxicity [7] 1.2% | activity change, negative = cytotoxicity [8] -0.0501% | activity change, negative = cytotoxicity [9] -1.42% | activity change, negative = cytotoxicity [10] 0.173% | activity change, negative = cytotoxicity [11] -13.8% | activity change, negative = cytotoxic [12] 7.54% | activity change, negative = cytotoxicity [13] 6.82% | activity change, negative = cytotoxicity [14] -8.1% | activity change, negative = cytotoxicity [15] -2.47% | activity, negative = cytotoxicity [16] -9.06% | activity change, negative = cytotoxicity [17] 2.12% | activity change, negative = cytotoxicity [18] -5.39% | activity change, negative = cytotoxicity [19] -0.336% | activity change, negative = cytotoxicity [20] 6.79%

Cc1ccc2ccccc2c1C
inactive: viability change, negative = cytotoxic [1] -3.75% | activity change, negative = cytotoxic [2] 6.04% | activity change, negative = cytotoxicity [4] 7.77% | viability change, negative = cytotoxic [5] 1.71% | activity change, negative = cytotoxic [6] 1.29% | activity change, negative = cytotoxicity [7] -1.21% | activity change, negative = cytotoxicity [8] -5.12% | activity change, negative = cytotoxicity [9] -4.63% | activity change, negative = cytotoxicity [10] -2.59% | activity change, negative = cytotoxicity [11] -9.71% | activity change, negative = cytotoxic [12] -2.05% | activity change, negative = cytotoxicity [13] 3.83% | activity change, negative = cytotoxicity [14] -0.889% | activity change, negative = cytotoxicity [15] -3.65% | activity, negative = cytotoxicity [16] -9.49% | activity change, negative = cytotoxicity [17] 1.9% | activity change, negative = cytotoxicity [18] -8.37% | activity change, negative = cytotoxicity [19] -4.03% | activity change, negative = cytotoxicity [20] -17.7%
